No constants are given. Whether binding was seen depends on the method and setting. Some binding calls cover weakened binding; strength is not graded here.
How the values were obtained:
[1] = molecular target: full length mouse DLL4 on overexpressing CHO or HEK293 cells (mouse) (UniProt Q9JI71); experiment: FMAT competition: labelled hNotch1/Fc on CHO-mDLL4 cells
[2] = molecular target: recombinant human DLL4, C-terminally His-tagged extracellular domain (R&D Systems) (human) (UniProt Q9NR61); experiment: AlphaScreen competition: biotinylated hDLL4 vs hNotch1/Fc
[3] = molecular target: full length human DLL4 on overexpressing CHO or HEK293 cells (human) (UniProt Q9NR61); experiment: FACS on HEK293-hDLL4 cells
[4] = molecular target: full length mouse DLL4 on overexpressing CHO or HEK293 cells (mouse) (UniProt Q9JI71); experiment: FACS on HEK293-mDLL4 cells
[5] = molecular target: cynomolgus DLL4 on overexpressing cells (cynomolgus (SEQ ID NO: 418 is the rhesus entry, stated 100% identical)); experiment: FACS on HEK293-cDLL4 cells
[6] = molecular target: recombinant human DLL4, C-terminally His-tagged extracellular domain (R&D Systems) (human) (UniProt Q9NR61); experiment: binding ELISA, coated rhDLL4
[7] = molecular target: recombinant mouse DLL4, C-terminally His-tagged extracellular domain (R&D Systems) (mouse) (UniProt Q9JI71); experiment: binding ELISA, coated rmDLL4
[8] = molecular target: recombinant human DLL4, C-terminally His-tagged extracellular domain (R&D Systems) (human) (UniProt Q9NR61); experiment: binding ELISA, coated rhDLL4 [binding to rhDLL4]
[9] = molecular target: recombinant mouse DLL4, C-terminally His-tagged extracellular domain (R&D Systems) (mouse) (UniProt Q9JI71); experiment: binding ELISA, coated rmDLL4 [binding to rmDLL4]
[10] = molecular target: full length human DLL4 on overexpressing CHO or HEK293 cells (human) (UniProt Q9NR61); experiment: FMAT competition: labelled hNotch1/Fc on CHO-hDLL4 cells
[11] = molecular target: recombinant human DLL4, C-terminally His-tagged extracellular domain (R&D Systems) (human) (UniProt Q9NR61); experiment: competition ELISA: biotinylated hDLL4 + binder, binding to coated hNotch1/Fc
[12] = molecular target: full length human DLL4 on overexpressing CHO or HEK293 cells (human) (UniProt Q9NR61); experiment: FACS titration on human DLL4 overexpressing cells, detection with anti-c-myc Alexa647, mean MCF
[13] = molecular target: full length mouse DLL4 on overexpressing CHO or HEK293 cells (mouse) (UniProt Q9JI71); experiment: FACS titration on mouse DLL4 overexpressing cells, detection with anti-c-myc Alexa647, mean MCF
[14] = molecular target: cynomolgus DLL4 on overexpressing cells (cynomolgus (SEQ ID NO: 418 is the rhesus entry, stated 100% identical)); experiment: FACS titration on cynomolgus DLL4 expressing cells, detection with anti-c-myc Alexa647, mean MCF
[15] = molecular target: recombinant human DLL4, C-terminally His-tagged extracellular domain (R&D Systems) (human) (UniProt Q9NR61); experiment: SPR binning

Sequences of proteins named here, by UniProt entry; tags and fusion partners are left off. A change or cut given only in a name is not applied to a line headed by its entry. A line that says so, or that is headed by a name, gives the form on record, which may keep a tag or linker. Residues count along the entry.
UniProt Q9JI71: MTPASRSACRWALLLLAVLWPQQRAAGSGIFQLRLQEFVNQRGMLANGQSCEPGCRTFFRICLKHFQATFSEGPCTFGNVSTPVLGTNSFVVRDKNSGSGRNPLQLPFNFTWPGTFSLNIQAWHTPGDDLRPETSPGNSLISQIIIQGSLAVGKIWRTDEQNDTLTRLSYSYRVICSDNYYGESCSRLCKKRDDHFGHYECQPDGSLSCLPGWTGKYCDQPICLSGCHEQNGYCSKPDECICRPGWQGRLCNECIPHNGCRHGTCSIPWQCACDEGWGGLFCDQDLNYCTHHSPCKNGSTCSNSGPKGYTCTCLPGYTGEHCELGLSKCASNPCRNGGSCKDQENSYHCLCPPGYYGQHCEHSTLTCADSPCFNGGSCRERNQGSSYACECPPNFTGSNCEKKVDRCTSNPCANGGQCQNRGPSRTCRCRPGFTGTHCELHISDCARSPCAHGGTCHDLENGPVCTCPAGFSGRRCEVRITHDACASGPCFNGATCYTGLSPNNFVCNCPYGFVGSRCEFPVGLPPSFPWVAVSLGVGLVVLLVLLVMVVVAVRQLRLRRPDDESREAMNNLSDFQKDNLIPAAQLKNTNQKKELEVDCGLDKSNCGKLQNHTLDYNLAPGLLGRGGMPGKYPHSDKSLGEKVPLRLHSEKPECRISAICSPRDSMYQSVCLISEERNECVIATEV
full length mouse DLL4 on overexpressing CHO or HEK293 cells: residues 27-686 of Q9JI71
recombinant mouse DLL4, C-terminally His-tagged extracellular domain (R&D Systems): residues 27-532 of Q9JI71
UniProt Q9NR61: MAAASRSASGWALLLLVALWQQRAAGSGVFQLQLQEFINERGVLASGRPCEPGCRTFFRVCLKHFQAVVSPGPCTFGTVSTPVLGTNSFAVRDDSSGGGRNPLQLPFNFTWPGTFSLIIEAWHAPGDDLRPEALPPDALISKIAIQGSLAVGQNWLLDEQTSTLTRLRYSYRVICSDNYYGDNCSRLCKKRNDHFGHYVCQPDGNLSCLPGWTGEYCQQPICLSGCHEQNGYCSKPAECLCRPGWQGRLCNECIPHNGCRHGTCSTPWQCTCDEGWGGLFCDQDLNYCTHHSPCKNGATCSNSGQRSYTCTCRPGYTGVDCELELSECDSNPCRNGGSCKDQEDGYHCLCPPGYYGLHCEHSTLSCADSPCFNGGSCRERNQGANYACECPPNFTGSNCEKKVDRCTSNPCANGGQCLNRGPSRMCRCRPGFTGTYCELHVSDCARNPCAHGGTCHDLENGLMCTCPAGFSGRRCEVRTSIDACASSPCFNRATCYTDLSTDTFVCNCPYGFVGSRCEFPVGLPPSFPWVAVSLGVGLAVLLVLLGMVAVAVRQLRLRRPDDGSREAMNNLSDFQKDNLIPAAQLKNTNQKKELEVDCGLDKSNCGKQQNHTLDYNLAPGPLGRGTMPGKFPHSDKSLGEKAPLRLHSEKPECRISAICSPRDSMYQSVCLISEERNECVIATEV

binding [1] | binding [2] | binding [6] | binding [11] | Binder | further results
binds | binds |  |  | DLLBII61F05 (VHH, tested as periplasmic extract; also called DLLBII61F5; not shown: C-terminal c-myc tag and His6 tag) VHH: EVQLVESGGGLVQPGGSLRLSCTASGFTFSSYAMSWVRQAPGKGLEWVSFINKDGSDTGYADSVKGRFTISRDNAKNTMYLQMNSLKPEDTAVYFCETRTSRSPRPRGQGTQVTVSS | 
binds | binds | binds | binds | DLLBII115A05 (VHH, also called DLLBII115A5; 115A5; not shown: C-terminal c-myc tag and His6 tag) VHH: EVQLVESGGGLVQPGGSLRLSCAASGFTFGSYDMSWVRRSPGKGPEWVSSINSGGGSTYYADFVKGRFTISRDNAKNTLYLQMNSLKPEDTAVYYCAADRYIRARQGDYWGAYEYDYWGQGTQVTVSS | binding [3]: binds; binding [4]: binds; binding [5]: binds; binding [7]: binds; binding [8]: binds; binding [9]: binds; binding [10]: binds; binding [12]: binds; binding [13]: binds; binding [14]: binds
 |  | binds | binds | DLLBII136C07 (VHH, not shown: C-terminal c-myc tag and (His)6 tag) VHH: EVQLVESGGGLVQPGGSLRLSCAASGFTFGSYDMSWVRRSPGKGPEWVSSINSGGGSTYYADYVKGRFTISRDNAKNTLYLQMNSLKPEDTAVYYCAADRYIWARQGEYWGAYEYDYWGQGTQVTVSS | 
 |  | binds | binds | DLLBII015 (VHH, not shown: C-terminal c-myc tag and (His)6 tag) VHH: EVQLVESGGGLVQPGGSLRLSCAASGFTIGSYDMSWVRRSPGKGPEWVSAINSGGGSTYYADYVKGRFTISRDNAKNTLYLQMNSLKPEDTAVYYCAADRYIWARQGEYWGAYAYDYWGQGTQVTVSS | 
 |  | binds | binds | DLLBII133G05 (VHH, not shown: C-terminal c-myc tag and (His)6 tag) VHH: EVQLVESGGGLVQPGGSLRLSCAASGFTFGSYDMSWVRRSPGKGPEWVSAINSGGGSTYYTDYVKGRFTISRDNAKNTLYLQMNSLKPEDTAVYYCAADRYIWARQGEYWGAYAYDYWGQGTQVTVSS | 
 |  | binds | binds | DLLBII133A09 (VHH, not shown: C-terminal c-myc tag and (His)6 tag) VHH: EVQLVESGGGLVQPGGSLRLSCAASGFTFGSYDMSWVRRSPGKGPEWVSAINSGGGSTYYADYVKGRFTISRDNAKNTLYLQMNSLKPEDTAVYYCAADRYIWARQGEYWGAYAYDYWGQGTQVTVSS | 
 |  |  | binds | DLLBII104G01 (VHH, also called DLLBII104G1; 104G1; not shown: C-terminal c-myc tag and His6 tag) VHH: EVQLVESGGGLVQAGGSLRLSCAASGFTFDDYAIGWFRQAPGKEREGVSCISSSDGSTYYADSVKGRFTISSDNAKNTVYLQMNSLKPEDTAVYYCATAWCDSSWYRSFVGYWGQGTQVTVSS | binding [15]: binds; binding [8]: binds
 | binds |  | binds | DLLBII6B11 (VHH, also called DLLBII06B11; not shown: C-terminal c-myc tag and His6 tag) VHH: EVQLVESEGGLVQAGGSLRLSCAASGSTFSSYAMGWYRQAPGKQRELVAVISNGGITNYPNSVKGRFTISRDNAKNTVYLQMNSLKPEDTAVYYCFYSGSYYYPTDVHEYDYWGQGTQVTVSS | binding [15]: binds; binding [8]: binds
binds | binds |  |  | DLLBII95F02 (VHH, tested as periplasmic extract; also called DLLBII95F2; not shown: C-terminal c-myc tag and His6 tag) VHH: EVQLVESGGGSVQAGGSLRLSCAASGRTFSSYAMGWFRQAPGKEREFVAAINWSGGYTYYADSVRGRFTISRDNAKNTVYLQMNSLKPEDTAVYYCAAPAPGSSGYEYDYWGQGTQVTVSS | 
binds |  |  |  | DLLBII101H09 (VHH, tested as periplasmic extract; also called DLLBII101H9; not shown: C-terminal c-myc tag and His6 tag) VHH: EVQLVESGGGLVQPGGSLRLSCAASGFTLGYYTIVWFRQAPGKERKGVSCISSRDGSRYYADSVKGRFTISRDNAKNTVYLRMNSLKPEDTAVYYCAAGPDCSSYDYWGQGTQVTVSS | 
 |  | binds | binds | DLLBII101G08 (VHH, also called DLLBII101G8; 101G8; not shown: C-terminal c-myc tag and His6 tag) VHH: EVQLVESGGGLVQAGGSLRLSCAASGRTFSSYAMAWFRQAPGKEREFVAAIRWSGGTAYYADSVQGRFTISRDNAKNTVYLQMNSLKPEDTAVYYCANRAADTRLGPYEYDYWGQGTQVTVSS | binding [8]: binds
 |  | binds | binds | DLLBII129E11 (VHH, not shown: C-terminal c-myc tag and (His)6 tag) VHH: EVQLVESGGGLVQAGGSLRLSCAASGRTFSSYAMAWYRQAPGKEREYVAAIRWSGGTAYYADSVQGRFTISRDNAKNTVYLQMNSLKPEDTAVYYCANRAPDTRLRPYLYDYWGQGTQVTVSS | 
 |  | binds | binds | DLLBII129D08 (VHH, not shown: C-terminal c-myc tag and (His)6 tag) VHH: EVQLVESGGGLVQAGGSLRLSCAASGRTFSSYAMAWYRQAPGKEREYVAAIRWSGGTAYYADSVQGRFTISRDNAKNTVYLQMNSLKPEDTAVYYCANRAPDTRLEPYLYDYWGQGTQVTVSS | 
binds | binds |  |  | DLLBII102G04 (VHH, tested as periplasmic extract; also called DLLBII102G4; not shown: C-terminal c-myc tag and His6 tag) VHH: EVQLMESGGGLVQPGGSLRLSCAASGFTFSSYAMSWVRQAPGKGLEWVSRITSGGRTTYRDSVKGRFTISRDNSKNTLYLQMNSLKPEDTALYYCAKARGDIDVYTLSDSRGQGTQVTVSS | 
binds | binds |  |  | DLLBII61F07 (VHH, tested as periplasmic extract; also called DLLBII61F7; not shown: C-terminal c-myc tag and His6 tag) VHH: EVQLVESGGGLVQAGGSLRLSCAASGRTFSRYAMGWFRQAPGKEREFVAAINWSGGSTYYADSVKGRFTISRDNAKNTVYLQMNSLKPEDTAVYDCAASNYYSVYDDRPVMDYWGQGTQVTVSS | 
